Compound in the test: Nc1ncnc2c1ncn2[C@@H]1O[C@H](COP(=O)(O)OP(=O)(O)OP(=O)(O)O)[C@@H](O)[C@H]1O [adenosine triphosphate]
Put plainly: NP40-soluble protein abundance relative to vehicle (solubility fold change) (ratio); higher = more soluble protein in presence of ATP. Summed up:
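Crude Jurkat lysate, prepared by Dounce homogenisation, was exposed to eight concentrations from 0.1 to 10 mM for 10 min at room temperature and then 3 min at 37 °C. Solubilisation used 0.8% NP40 with benzonase for 60 min at 4 °C, followed by ultracentrifugation and TMT labelling of the supernatant for LC-MS/MS. After vsn normalisation of intensities, each value is the fold change against the detergent-processed vehicle within each replicate, across three independent experiments.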

Amino acid sequences for entries named in this document (tags omitted). A change or cut given only in a name is not applied to a line headed by its entry.
UniProt O43583: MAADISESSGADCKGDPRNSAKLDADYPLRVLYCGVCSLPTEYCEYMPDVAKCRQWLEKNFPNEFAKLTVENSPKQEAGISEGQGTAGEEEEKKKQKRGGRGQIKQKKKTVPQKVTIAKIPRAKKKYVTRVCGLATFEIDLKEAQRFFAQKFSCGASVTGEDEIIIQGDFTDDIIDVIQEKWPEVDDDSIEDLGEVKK
UniProt O15042: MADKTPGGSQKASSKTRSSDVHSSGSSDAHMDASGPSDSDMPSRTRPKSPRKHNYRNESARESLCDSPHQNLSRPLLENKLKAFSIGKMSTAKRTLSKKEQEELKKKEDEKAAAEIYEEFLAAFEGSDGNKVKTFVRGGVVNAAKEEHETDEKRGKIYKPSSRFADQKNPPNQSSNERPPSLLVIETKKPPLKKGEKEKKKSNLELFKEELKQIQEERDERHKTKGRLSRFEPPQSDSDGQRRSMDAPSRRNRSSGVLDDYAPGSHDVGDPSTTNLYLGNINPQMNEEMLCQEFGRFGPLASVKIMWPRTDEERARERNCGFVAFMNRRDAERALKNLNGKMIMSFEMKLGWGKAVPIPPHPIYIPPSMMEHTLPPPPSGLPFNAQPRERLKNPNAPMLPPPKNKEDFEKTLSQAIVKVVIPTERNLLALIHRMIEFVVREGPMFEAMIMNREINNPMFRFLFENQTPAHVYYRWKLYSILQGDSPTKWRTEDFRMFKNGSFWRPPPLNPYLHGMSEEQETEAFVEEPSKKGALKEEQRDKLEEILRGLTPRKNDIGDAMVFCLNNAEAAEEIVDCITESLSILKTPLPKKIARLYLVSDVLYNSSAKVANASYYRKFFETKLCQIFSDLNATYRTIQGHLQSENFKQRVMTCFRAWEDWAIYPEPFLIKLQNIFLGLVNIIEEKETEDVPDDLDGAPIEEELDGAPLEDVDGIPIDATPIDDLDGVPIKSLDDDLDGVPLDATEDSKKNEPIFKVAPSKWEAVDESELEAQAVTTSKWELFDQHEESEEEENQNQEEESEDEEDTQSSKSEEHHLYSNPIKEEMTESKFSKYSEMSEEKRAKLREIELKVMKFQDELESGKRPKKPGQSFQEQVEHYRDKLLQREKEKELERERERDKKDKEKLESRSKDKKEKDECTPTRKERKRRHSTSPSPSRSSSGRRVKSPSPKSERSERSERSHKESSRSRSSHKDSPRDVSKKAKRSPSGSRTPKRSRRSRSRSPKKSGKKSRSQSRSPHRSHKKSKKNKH
UniProt O43159: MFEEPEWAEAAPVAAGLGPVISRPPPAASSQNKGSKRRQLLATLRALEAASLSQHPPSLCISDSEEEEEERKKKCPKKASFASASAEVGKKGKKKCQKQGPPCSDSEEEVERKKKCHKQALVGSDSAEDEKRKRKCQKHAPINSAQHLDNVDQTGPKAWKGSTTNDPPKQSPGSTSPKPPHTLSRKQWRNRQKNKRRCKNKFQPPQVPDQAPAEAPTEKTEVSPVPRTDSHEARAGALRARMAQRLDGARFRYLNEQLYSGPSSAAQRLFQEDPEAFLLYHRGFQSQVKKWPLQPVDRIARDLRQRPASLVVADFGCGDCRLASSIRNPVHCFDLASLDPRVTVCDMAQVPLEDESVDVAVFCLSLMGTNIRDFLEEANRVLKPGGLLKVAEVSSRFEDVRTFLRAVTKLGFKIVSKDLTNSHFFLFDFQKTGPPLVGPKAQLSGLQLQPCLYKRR
UniProt O95182, whole entry: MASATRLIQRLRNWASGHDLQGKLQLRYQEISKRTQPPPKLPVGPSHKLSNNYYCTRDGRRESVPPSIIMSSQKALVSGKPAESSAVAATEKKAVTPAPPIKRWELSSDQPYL
UniProt O15294: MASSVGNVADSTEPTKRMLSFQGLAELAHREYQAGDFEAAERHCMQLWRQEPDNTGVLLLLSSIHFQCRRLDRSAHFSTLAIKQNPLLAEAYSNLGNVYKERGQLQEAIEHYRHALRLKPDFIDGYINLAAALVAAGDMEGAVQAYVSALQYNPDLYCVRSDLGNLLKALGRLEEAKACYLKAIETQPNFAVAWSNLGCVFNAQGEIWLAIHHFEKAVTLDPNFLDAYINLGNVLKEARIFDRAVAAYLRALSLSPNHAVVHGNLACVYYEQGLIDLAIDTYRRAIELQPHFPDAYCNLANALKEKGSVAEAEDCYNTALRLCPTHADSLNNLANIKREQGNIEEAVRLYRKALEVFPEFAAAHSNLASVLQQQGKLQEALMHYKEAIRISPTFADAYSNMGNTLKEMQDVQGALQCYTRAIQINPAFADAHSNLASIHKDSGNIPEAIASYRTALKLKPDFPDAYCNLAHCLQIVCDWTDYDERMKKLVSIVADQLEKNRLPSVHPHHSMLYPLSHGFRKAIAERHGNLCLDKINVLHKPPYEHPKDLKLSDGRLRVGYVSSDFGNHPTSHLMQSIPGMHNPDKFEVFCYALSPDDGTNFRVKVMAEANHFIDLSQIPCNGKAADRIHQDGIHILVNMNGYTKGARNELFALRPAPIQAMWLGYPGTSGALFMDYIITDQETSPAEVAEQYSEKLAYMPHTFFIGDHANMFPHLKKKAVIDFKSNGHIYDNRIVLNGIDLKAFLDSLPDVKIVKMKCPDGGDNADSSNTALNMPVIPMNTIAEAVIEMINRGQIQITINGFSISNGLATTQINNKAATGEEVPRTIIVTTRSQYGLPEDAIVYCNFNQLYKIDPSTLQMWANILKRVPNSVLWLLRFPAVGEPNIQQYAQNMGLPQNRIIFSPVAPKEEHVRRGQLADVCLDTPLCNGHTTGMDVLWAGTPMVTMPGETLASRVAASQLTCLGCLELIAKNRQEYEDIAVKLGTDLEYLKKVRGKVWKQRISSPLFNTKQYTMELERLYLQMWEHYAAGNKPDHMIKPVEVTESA
UniProt O00422: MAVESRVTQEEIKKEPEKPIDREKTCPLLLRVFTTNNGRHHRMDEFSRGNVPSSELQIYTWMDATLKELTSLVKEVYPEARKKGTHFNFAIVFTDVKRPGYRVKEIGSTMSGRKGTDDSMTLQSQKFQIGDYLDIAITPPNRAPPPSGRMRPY
UniProt O14920: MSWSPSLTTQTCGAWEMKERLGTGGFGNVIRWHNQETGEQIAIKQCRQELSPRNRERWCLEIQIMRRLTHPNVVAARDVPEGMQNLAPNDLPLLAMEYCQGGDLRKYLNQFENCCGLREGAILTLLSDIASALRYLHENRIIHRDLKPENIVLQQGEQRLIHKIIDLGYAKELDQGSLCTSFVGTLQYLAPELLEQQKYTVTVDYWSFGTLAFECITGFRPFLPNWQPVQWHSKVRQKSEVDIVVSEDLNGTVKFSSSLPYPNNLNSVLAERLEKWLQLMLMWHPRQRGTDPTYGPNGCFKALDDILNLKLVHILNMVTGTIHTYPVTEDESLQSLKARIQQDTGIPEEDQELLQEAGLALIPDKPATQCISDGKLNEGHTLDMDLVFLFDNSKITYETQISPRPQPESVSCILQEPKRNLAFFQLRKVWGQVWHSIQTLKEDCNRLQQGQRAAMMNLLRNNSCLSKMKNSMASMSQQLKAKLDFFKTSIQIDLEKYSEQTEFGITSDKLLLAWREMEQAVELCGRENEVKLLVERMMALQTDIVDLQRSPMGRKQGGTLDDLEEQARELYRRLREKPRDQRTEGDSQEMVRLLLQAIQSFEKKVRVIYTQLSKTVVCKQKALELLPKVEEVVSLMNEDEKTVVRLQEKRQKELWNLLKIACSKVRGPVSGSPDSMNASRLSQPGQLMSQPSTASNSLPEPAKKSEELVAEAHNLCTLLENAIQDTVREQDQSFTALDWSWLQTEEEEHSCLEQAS
UniProt O00264: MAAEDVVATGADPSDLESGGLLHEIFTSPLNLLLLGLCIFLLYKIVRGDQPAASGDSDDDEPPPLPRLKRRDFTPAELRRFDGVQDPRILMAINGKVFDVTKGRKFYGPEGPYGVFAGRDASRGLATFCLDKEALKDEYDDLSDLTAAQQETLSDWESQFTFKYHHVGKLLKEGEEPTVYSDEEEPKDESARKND
UniProt O14744, whole entry: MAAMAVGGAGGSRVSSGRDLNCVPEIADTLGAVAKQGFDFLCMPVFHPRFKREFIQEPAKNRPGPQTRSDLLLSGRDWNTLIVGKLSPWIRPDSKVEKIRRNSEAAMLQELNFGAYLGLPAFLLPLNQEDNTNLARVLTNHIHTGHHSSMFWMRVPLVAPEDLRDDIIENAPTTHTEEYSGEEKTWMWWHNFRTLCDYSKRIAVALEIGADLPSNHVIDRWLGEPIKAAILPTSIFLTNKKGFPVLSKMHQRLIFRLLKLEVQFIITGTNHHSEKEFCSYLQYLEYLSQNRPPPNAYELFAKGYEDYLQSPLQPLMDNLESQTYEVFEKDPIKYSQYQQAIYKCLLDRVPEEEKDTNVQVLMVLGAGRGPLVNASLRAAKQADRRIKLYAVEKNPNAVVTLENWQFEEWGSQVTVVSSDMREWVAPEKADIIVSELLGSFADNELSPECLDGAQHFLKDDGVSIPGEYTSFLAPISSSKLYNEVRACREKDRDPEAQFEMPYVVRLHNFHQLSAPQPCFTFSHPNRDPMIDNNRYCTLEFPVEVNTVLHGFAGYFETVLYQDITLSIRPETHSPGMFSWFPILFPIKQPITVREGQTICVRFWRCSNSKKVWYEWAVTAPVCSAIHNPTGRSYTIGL
UniProt O60294: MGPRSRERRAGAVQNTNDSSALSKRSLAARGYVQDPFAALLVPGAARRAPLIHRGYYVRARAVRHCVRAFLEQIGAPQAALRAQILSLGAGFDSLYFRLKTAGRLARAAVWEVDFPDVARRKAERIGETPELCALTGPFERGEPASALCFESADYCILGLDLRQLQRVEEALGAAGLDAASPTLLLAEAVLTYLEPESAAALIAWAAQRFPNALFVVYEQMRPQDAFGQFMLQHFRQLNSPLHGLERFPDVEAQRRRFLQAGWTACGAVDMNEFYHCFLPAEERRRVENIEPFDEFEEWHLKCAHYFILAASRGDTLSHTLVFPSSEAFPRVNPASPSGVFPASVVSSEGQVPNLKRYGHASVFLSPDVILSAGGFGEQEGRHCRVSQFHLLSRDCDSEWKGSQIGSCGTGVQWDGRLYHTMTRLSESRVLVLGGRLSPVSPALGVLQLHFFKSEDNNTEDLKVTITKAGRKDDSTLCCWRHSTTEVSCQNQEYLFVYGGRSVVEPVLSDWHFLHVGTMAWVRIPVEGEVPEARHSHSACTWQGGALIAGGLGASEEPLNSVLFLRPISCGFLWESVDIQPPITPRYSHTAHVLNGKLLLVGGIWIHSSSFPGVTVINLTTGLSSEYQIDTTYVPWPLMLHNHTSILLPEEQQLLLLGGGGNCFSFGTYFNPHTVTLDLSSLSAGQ
UniProt O14737: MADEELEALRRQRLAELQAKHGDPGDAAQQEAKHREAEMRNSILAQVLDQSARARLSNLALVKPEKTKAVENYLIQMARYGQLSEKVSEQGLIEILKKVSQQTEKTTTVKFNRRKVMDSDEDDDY
UniProt O14967: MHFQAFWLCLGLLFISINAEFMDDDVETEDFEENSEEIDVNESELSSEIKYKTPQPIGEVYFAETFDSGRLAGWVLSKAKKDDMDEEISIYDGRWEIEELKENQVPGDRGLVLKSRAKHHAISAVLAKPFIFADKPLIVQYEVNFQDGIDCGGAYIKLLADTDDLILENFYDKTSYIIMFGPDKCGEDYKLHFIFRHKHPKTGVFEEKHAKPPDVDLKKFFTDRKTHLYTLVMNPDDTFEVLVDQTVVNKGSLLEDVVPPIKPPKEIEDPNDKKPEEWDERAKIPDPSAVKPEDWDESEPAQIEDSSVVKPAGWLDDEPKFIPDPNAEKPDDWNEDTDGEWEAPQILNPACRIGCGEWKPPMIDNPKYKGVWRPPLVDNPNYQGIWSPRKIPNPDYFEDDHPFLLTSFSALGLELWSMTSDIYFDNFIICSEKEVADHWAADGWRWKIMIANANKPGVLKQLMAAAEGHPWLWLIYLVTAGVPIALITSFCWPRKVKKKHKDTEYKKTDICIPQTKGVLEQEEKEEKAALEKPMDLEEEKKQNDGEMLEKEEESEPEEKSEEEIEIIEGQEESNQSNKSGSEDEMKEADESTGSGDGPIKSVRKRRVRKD
UniProt O14745: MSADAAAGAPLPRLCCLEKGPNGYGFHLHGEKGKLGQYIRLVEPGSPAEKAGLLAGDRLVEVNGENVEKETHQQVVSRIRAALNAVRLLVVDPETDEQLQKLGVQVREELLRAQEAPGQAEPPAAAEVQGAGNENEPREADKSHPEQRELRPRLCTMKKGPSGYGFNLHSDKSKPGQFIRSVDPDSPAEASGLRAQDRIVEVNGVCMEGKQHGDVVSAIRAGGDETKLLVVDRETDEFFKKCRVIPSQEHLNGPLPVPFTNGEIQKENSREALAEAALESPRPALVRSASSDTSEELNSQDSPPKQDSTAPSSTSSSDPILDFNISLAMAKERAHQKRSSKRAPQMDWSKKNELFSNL
UniProt O15347: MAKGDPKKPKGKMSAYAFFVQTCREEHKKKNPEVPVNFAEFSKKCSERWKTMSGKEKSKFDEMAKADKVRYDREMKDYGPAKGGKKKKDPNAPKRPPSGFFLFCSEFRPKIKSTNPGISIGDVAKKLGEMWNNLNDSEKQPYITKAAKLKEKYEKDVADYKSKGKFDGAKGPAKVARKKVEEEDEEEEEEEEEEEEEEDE

± gives the standard deviation of the averaged measurements. This is a selection; strong and weak results do not stand in their true shares. Most values lie at the level of the controls, where differences are scatter.

For 60 targets, NP40-soluble protein abundance results are on record in the supplement of paper PMC6411743.

In the case of DENR (UniProt O43583), the NP40-soluble protein abundance (concentration: 0.1mM) came out at 0.901 ± 0.065 and the NP40-soluble protein abundance (concentration: 0.5mM) was determined as 0.869 ± 0.11.

Take UniProt O14775-2|O14775-3: the NP40-soluble protein abundance by setting is: (concentration: 0.1mM) 0.917 ± 0.031; (concentration: 0.5mM) 0.902 ± 0.015.

For the target ARPC2 (UniProt O15144), the NP40-soluble protein abundance (concentration: 0.1mM) came out at 1.05 ± 0.097 and the NP40-soluble protein abundance (concentration: 0.5mM) turned out to be 1.06 ± 0.099.

For HGS (UniProt O14964), the NP40-soluble protein abundance runs as follows: (concentration: 0.1mM) 0.994 ± 0.049; (concentration: 0.5mM) 0.982 ± 0.031.

In the case of UniProt O15042 and related entries, the NP40-soluble protein abundance was 1.03 ± 0.049 (concentration: 0.1mM) and 1.11 ± 0.075 (concentration: 0.5mM).

In the case of UniProt O43159, the NP40-soluble protein abundance is, setting by setting: (concentration: 0.1mM) 0.966 ± 0.1; (concentration: 0.5mM) 0.98 ± 0.1.

Turning to UniProt O00592 and related entries, the NP40-soluble protein abundance was found to be 0.924 ± 0.14 (concentration: 0.1mM) and 0.918 ± 0.11 (concentration: 0.5mM).

On to “M0R0N0 and related entries (UniProt O95182)”, for which the NP40-soluble protein abundance is, setting by setting: (concentration: 0.1mM) 0.93 ± 0.1; (concentration: 0.5mM) 0.897 ± 0.081.

Turning to OGT (UniProt O15294), the NP40-soluble protein abundance (concentration: 0.1mM) stood at 1.02 ± 0.027 and the NP40-soluble protein abundance (concentration: 0.5mM) was 1.02 ± 0.036.

TAF4 (UniProt O00268): the NP40-soluble protein abundance (concentration: 0.1mM) was 1 ± 0.11 and the NP40-soluble protein abundance (concentration: 0.5mM) stood at 1.07 ± 0.082.

Take NDUFA4 (UniProt O00483): the NP40-soluble protein abundance runs as follows: (concentration: 0.1mM) 0.902 ± 0.076; (concentration: 0.5mM) 0.915 ± 0.095.

Take UniProt O60333-2|O60333-3: the NP40-soluble protein abundance by setting is: (concentration: 0.1mM) 1.01 ± 0.052; (concentration: 0.5mM) 0.974 ± 0.034.

Take UniProt O15400 and related entries: the NP40-soluble protein abundance (concentration: 0.1mM) worked out at 0.907 ± 0.088 and the NP40-soluble protein abundance (concentration: 0.5mM) worked out at 0.868 ± 0.1.

For TRAFD1 (UniProt O14545), the NP40-soluble protein abundance amounted to 1.04 ± 0.069 (concentration: 0.1mM) and 0.974 ± 0.068 (concentration: 0.5mM).

Regarding AQR (UniProt O60306), the NP40-soluble protein abundance reads like this: (concentration: 0.1mM) 1.08 ± 0.073; (concentration: 0.5mM) 1.07 ± 0.055.

TOR1A (UniProt O14656): the NP40-soluble protein abundance reads like this: (concentration: 0.1mM) 1 ± 0.048; (concentration: 0.5mM) 1.03 ± 0.048.

Regarding UniProt O43399 and related entries, the NP40-soluble protein abundance is 0.849 ± 0.16 (concentration: 0.1mM) and 0.841 ± 0.19 (concentration: 0.5mM).

On to UniProt O00422 and related entries, for which the NP40-soluble protein abundance is, setting by setting: (concentration: 0.1mM) 0.93 ± 0.18; (concentration: 0.5mM) 1.07 ± 0.22.

On to ARPC3 (UniProt O15145), for which the NP40-soluble protein abundance (concentration: 0.1mM) amounted to 0.979 ± 0.096 and the NP40-soluble protein abundance (concentration: 0.5mM) amounted to 0.98 ± 0.12.

Regarding UniProt O00115 and related entries, the NP40-soluble protein abundance amounted to 0.932 ± 0.054 (concentration: 0.1mM) and 0.909 ± 0.015 (concentration: 0.5mM).

For the target DEGS1 (UniProt O15121), the NP40-soluble protein abundance was determined as 1.1 ± 0.045 (concentration: 0.1mM) and 1.04 ± 0.013 (concentration: 0.5mM).

Consider UniProt O00410 and related entries, for which the NP40-soluble protein abundance reads like this: (concentration: 0.1mM) 0.983 ± 0.026; (concentration: 0.5mM) 0.983 ± 0.025.

Regarding SLC16A3 (UniProt O15427), the NP40-soluble protein abundance (concentration: 0.1mM) was 1.04 ± 0.045 and the NP40-soluble protein abundance (concentration: 0.5mM) is 1.02 ± 0.047.

As for AGPS (UniProt O00116), the NP40-soluble protein abundance was determined as 1.05 ± 0.062 (concentration: 0.1mM) and 1.03 ± 0.044 (concentration: 0.5mM).

In the case of UniProt O14924 and related entries, the NP40-soluble protein abundance is 1 ± 0.23 (concentration: 0.1mM) and 1.36 ± 0.44 (concentration: 0.5mM).

In the case of UniProt O43586 and related entries, the NP40-soluble protein abundance runs as follows: (concentration: 0.1mM) 1.12 ± 0.051; (concentration: 0.5mM) 1.09 ± 0.1.

CLIC1 (UniProt O00299): the NP40-soluble protein abundance reads like this: (concentration: 0.1mM) 0.959 ± 0.08; (concentration: 0.5mM) 0.894 ± 0.09.

For the target UniProt O14920 and related entries, the NP40-soluble protein abundance is 1.02 ± 0.034 (concentration: 0.1mM) and 1 ± 0.038 (concentration: 0.5mM).

For PGRMC1 (UniProt O00264), the NP40-soluble protein abundance by setting is: (concentration: 0.1mM) 0.89 ± 0.19; (concentration: 0.5mM) 0.831 ± 0.22.

For the target NDUFS5 (UniProt O43920), the NP40-soluble protein abundance amounted to 0.975 ± 0.06 (concentration: 0.1mM) and 0.975 ± 0.021 (concentration: 0.5mM).

Take UniProt O43760 and related entries: the NP40-soluble protein abundance stood at 0.908 ± 0.079 (concentration: 0.1mM) and 0.822 ± 0.15 (concentration: 0.5mM).

With UniProt O43292 and related entries, the NP40-soluble protein abundance (concentration: 0.1mM) was determined as 1.03 ± 0.1 and the NP40-soluble protein abundance (concentration: 0.5mM) was 0.96 ± 0.04.

As to SGTA (UniProt O43765), the NP40-soluble protein abundance (concentration: 0.1mM) was 0.835 ± 0.15 and the NP40-soluble protein abundance (concentration: 0.5mM) was 0.829 ± 0.2.

As for UniProt O43166-2|O43166-3|O43166, the NP40-soluble protein abundance is, setting by setting: (concentration: 0.1mM) 1.03 ± 0.059; (concentration: 0.5mM) 1.0394 ± 0.00088.

In the case of PRMT5 (UniProt O14744), the NP40-soluble protein abundance (concentration: 0.1mM) was determined as 1.02 ± 0.038 and the NP40-soluble protein abundance (concentration: 0.5mM) was 1.04 ± 0.038.

For TAX1BP3 (UniProt O14907), the NP40-soluble protein abundance (concentration: 0.1mM) came out at 0.961 ± 0.046 and the NP40-soluble protein abundance (concentration: 0.5mM) came out at 0.967 ± 0.021.

Consider LCMT2 (UniProt O60294), for which the NP40-soluble protein abundance (concentration: 0.1mM) turned out to be 1.05 ± 0.062 and the NP40-soluble protein abundance (concentration: 0.5mM) was found to be 0.929 ± 0.094.

With UniProt O43663 and related entries, the NP40-soluble protein abundance was determined as 1.028 ± 0.01 (concentration: 0.1mM) and 1.01 ± 0.027 (concentration: 0.5mM).

Consider KPNA3 (UniProt O00505), for which the NP40-soluble protein abundance is, setting by setting: (concentration: 0.1mM) 1.04 ± 0.12; (concentration: 0.5mM) 1.05 ± 0.091.

For the target UniProt O00442 and related entries, the NP40-soluble protein abundance was determined as 1.05 ± 0.053 (concentration: 0.1mM) and 1.05 ± 0.067 (concentration: 0.5mM).

In the case of TRAPPC3 (UniProt O43617), the NP40-soluble protein abundance turned out to be 0.939 ± 0.076 (concentration: 0.1mM) and 0.873 ± 0.14 (concentration: 0.5mM).

As for UniProt O14639 and related entries, the NP40-soluble protein abundance is, setting by setting: (concentration: 0.1mM) 0.977 ± 0.02; (concentration: 0.5mM) 1.07 ± 0.045.

Regarding PDCD5 (UniProt O14737), the NP40-soluble protein abundance by setting is: (concentration: 0.1mM) 0.884 ± 0.089; (concentration: 0.5mM) 0.831 ± 0.076.

Consider UniProt O43903, for which the NP40-soluble protein abundance is, setting by setting: (concentration: 0.1mM) 0.9808 ± 0.0029; (concentration: 0.5mM) 0.959 ± 0.032.

Regarding STRN (UniProt O43815), the NP40-soluble protein abundance (concentration: 0.1mM) is 1.01 ± 0.043 and the NP40-soluble protein abundance (concentration: 0.5mM) worked out at 0.998 ± 0.051.

As for CLGN (UniProt O14967), the NP40-soluble protein abundance worked out at 1.03 ± 0.069 (concentration: 0.1mM) and 1.07 ± 0.055 (concentration: 0.5mM).

As to SLC9A3R1 (UniProt O14745), the NP40-soluble protein abundance is 0.945 ± 0.014 (concentration: 0.1mM) and 0.953 ± 0.011 (concentration: 0.5mM).

Take UniProt O15117-2|O15117-3: the NP40-soluble protein abundance worked out at 0.982 ± 0.041 (concentration: 0.1mM) and 1.03 ± 0.061 (concentration: 0.5mM).

Consider UniProt O15111, for which the NP40-soluble protein abundance amounted to 1.05 ± 0.073 (concentration: 0.1mM) and 1.07 ± 0.033 (concentration: 0.5mM).

For the target AP3B1 (UniProt O00203), the NP40-soluble protein abundance (concentration: 0.1mM) was 0.97 ± 0.0099 and the NP40-soluble protein abundance (concentration: 0.5mM) stood at 0.971 ± 0.067.

UniProt O14617-5: the NP40-soluble protein abundance reads like this: (concentration: 0.1mM) 1 ± 0.038; (concentration: 0.5mM) 1.02 ± 0.023.

For HMGB3 (UniProt O15347), the NP40-soluble protein abundance (concentration: 0.1mM) stood at 0.862 ± 0.23 and the NP40-soluble protein abundance (concentration: 0.5mM) was 0.823 ± 0.29.

Consider RRP9 (UniProt O43818), for which the NP40-soluble protein abundance by setting is: (concentration: 0.1mM) 1 ± 0.011; (concentration: 0.5mM) 1.05 ± 0.048.

Regarding BCAT2 (UniProt O15382), the NP40-soluble protein abundance runs as follows: (concentration: 0.1mM) 1.06 ± 0.067; (concentration: 0.5mM) 1.07 ± 0.067.

Consider UniProt O15123 and related entries, for which the NP40-soluble protein abundance was 0.935 ± 0.1 (concentration: 0.1mM) and 0.918 ± 0.071 (concentration: 0.5mM).

As to ZBTB24 (UniProt O43167), the NP40-soluble protein abundance runs as follows: (concentration: 0.1mM) 1.03 ± 0.028; (concentration: 0.5mM) 1.06 ± 0.079.

For the target UniProt O43670-2|X6R4W8, the NP40-soluble protein abundance runs as follows: (concentration: 0.1mM) 1.04 ± 0.034; (concentration: 0.5mM) 1.177 ± 0.0029.

With GAK (UniProt O14976), the NP40-soluble protein abundance by setting is: (concentration: 0.1mM) 0.979 ± 0.032; (concentration: 0.5mM) 0.987 ± 0.034.

On to UBFD1 (UniProt O14562), for which the NP40-soluble protein abundance (concentration: 0.1mM) is 0.999 ± 0.046 and the NP40-soluble protein abundance (concentration: 0.5mM) is 0.958 ± 0.012.

Turning to UniProt O00628 and related entries, the NP40-soluble protein abundance is, setting by setting: (concentration: 0.1mM) 1.1 ± 0.13; (concentration: 0.5mM) 1.02 ± 0.14.
